Primary screen of a compound library

Sequences of proteins named here, by UniProt entry; tags and fusion partners are left off.
UniProt E9BF75, entry or part of it: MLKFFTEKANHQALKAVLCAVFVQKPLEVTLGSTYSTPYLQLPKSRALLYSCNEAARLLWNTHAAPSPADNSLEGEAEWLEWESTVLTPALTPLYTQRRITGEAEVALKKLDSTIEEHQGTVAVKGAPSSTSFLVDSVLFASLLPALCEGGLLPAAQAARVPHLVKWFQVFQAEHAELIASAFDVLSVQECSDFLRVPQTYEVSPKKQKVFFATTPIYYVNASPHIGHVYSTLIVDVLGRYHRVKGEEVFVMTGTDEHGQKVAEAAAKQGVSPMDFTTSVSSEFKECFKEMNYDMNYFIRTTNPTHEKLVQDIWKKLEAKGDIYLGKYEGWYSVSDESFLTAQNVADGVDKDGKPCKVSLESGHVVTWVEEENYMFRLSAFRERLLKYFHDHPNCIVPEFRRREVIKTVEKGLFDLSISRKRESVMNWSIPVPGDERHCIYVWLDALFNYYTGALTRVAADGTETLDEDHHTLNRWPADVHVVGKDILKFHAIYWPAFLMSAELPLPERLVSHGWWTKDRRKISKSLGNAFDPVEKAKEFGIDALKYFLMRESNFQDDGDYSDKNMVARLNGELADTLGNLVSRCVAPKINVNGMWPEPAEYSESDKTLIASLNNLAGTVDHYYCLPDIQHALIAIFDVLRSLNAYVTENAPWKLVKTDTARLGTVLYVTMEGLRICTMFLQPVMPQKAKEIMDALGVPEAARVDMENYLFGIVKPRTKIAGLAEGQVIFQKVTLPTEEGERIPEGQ

A: 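Methionyl-tRNA synthetase (putative), Leishmania donovani (UniProt E9BF75). Primary screen of methionyl-tRNA synthetase; the read-out is not stated. The test concentration is not given. The values are filed as inhibition. About 68,000 compounds were tested under these conditions; 0.035% (about 24) showed 50% or more at least once.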
B: 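Assay on Mycobacterium tuberculosis, filed only as a heat shock assay from Cornell; the read-out is not stated. The concentration is filed as 10 mM, unlikely as a test dose, so the dose is not known. Higher reads as stronger inhibition (inferred: compounds with an IC50 in retests scored well above the rest). Of about 69,000 compounds tested this way, about 930 (1.4%) reached 50% or more in at least one test.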

All values are in %. How 0% and 100% were set is not recorded. Most values in the screen are low, and negative values occur. The compounds are a random part of those screened. A dash means the value is not listed here; it may have been measured.

{"structure": "Cn1nccc1-c1nnn2c1COCC(CNC1CCOCC1)C2", "stereo": "centres unmarked", "A": 12.92}
{"structure": "Cc1c2c(C(F)F)cc(SCC(=O)O)nc2nn1C", "A": 8.378, "B": -3.961}
{"structure": "CC(=O)N1CCC(Cc2cccc(-c3ccnn3C)n2)CC1", "A": 14.06, "B": -5.149}
{"structure": "Cn1cc(S(=O)(=O)N(CC(F)(F)F)C2CC2)cc1C(N)=O", "A": 5.367, "B": -24.85}
{"structure": "CC(Cc1ccccc1Cl)NC(=O)Nc1cnn(CC(N)=O)c1", "stereo": "centres unmarked", "A": 20.92, "B": 1.537}
{"structure": "[H][C@@]12CN(c3nc(C)cnc3C)C[C@]1([H])N(Cc1ccccc1OC)C(=O)O2", "B": -6.786}
{"structure": "Cc1cccc(C(=O)N2CCN(c3ccccc3F)CC2)n1", "A": 3.546, "B": -5.532}
{"structure": "Cn1cnc(S(=O)(=O)NCC2CCN(C(=O)Oc3ccccc3)CC2)c1", "A": 8.696, "B": -5.832}
{"structure": "Cn1cc(NC(=O)N2CCC2c2ccccc2)ccc1=O", "stereo": "centres unmarked", "A": 15.21, "B": -0.9123}
{"structure": "COC(=O)C1CCCCN1C(=O)c1ccc(N(C)C)cc1F", "stereo": "centres unmarked", "A": 16.16, "B": -1.966}
{"structure": "c1ccc(Cc2noc(CN3CCCCC3Cn3cncn3)n2)cc1", "stereo": "centres unmarked", "A": 7.104, "B": -7.208}
{"structure": "N#Cc1ccnc(N2CCN(CC(O)c3ccc(F)cc3F)CC2)c1", "stereo": "centres unmarked", "A": 12.36, "B": -8.713}
{"structure": "O=C(O)C(F)(F)F.O=C(O)C(F)(F)F.c1cnc(N2CCOCC3(CCCN(CC4CCOCC4)C3)C2)nc1", "stereo": "centres unmarked", "B": -11.64}
{"structure": "O=C(CN1CCN(c2ccccc2F)CC1)Nc1ccc(Cl)cn1", "A": 1.818, "B": -5.452}
{"structure": "O=C(c1cc[nH]n1)N1CCc2onc(COc3cccnc3)c2C1", "A": 9.453}
{"structure": "CC(C)n1cc(CN2CCCN(C(=O)c3cccn3C)CC2)cn1", "A": 12.37, "B": -15.75}
{"structure": "O=C(O)C(F)(F)F.[H][C@]12CN(c3nncs3)C[C@@]1(C(=O)O)CCCN(C1CCOC1)C2", "stereo": "some centres unmarked", "B": 32.9}
{"structure": "Cc1ccc(O[C@@H]2C[C@H]3CN(C(=O)c4cnccn4)CCN3C2)cc1", "A": 5.914}
{"structure": "CN(C)C(=O)[C@@H]1C[C@@H]2CCN(C3CCOCC3)C[C@@H]2O1", "A": 2.03}
{"structure": "COc1cc(CNCc2c(C(C)C)nn(C)c2N(C)C)ccn1", "A": 10.2, "B": 13.99}
{"structure": "COCCS(=O)(=O)NCc1ccc(N(C)C)c(C)c1", "A": 12.7, "B": 5.058}
{"structure": "CC(NC(=O)NCCCO)c1ccc2c(c1)NC(=O)CO2", "stereo": "centres unmarked", "A": 17.75, "B": -0.4213}
{"structure": "CCn1ccnc1CN1CCN(CC(O)CN2CCOCC2)CC1", "stereo": "centres unmarked", "A": 13.16, "B": 4.266}
{"structure": "Cc1nn(C)c(N2CCOCC2)c1CNC(C)c1cccs1", "stereo": "centres unmarked", "A": 13.14, "B": -14.69}
{"structure": "CC1CCCN(S(=O)(=O)NCCCn2ccc3ccccc32)C1", "stereo": "centres unmarked", "A": 7.453, "B": -2.504}
{"structure": "O=C(c1cccc(O)c1)N1CCN(Cc2nnc(C3CCC3)o2)CC1", "A": 0.5013, "B": -8.075}
{"structure": "COc1ncccc1CNC(=O)C1CC(=O)N(C)C1", "stereo": "centres unmarked", "A": 7.88, "B": -13.59}
{"structure": "c1ccc(-n2ncc(CN3CCCC3Cn3cccn3)n2)cc1", "stereo": "centres unmarked", "A": 10.1, "B": 23.17}
{"structure": "C=C(C)COc1ccccc1C(=O)NCCc1nncn1C", "A": 3.147, "B": -6.927}
{"structure": "O=C(c1ccc(O)cc1)N1C[C@@H]2OCCN(c3ncccn3)[C@@H]2C1", "A": 16.16}
{"structure": "CN(C)c1ccc(CCNC(=O)NCc2ccc(N(C)C)nc2)cc1", "A": 16.99, "B": 9.284}
{"structure": "CCOC(=O)CSc1ccc(-c2nc(CC)no2)cn1", "A": 6.832, "B": -12.42}
{"structure": "[H][C@@]12CN(C(=O)c3cccnc3)C[C@]1([H])[C@@H]2CC(=O)Nc1cccnc1", "B": -1.487}
{"structure": "O=C(O)C(F)(F)F.[H][C@@]12CCN(Cc3cn(C)c4ccccc34)[C@]1([H])CC[C@@H](C(=O)NC1CC1)O2", "B": -3.791}
{"structure": "Cc1nc2cc(=O)[nH]n2c(C)c1CC(=O)Nc1cnn(C)c1", "A": 15.53, "B": -10.33}
{"structure": "[H][C@@]12CNC(=O)N1CCN(Cc1cccc(OC)n1)C2", "B": 0.4252}
{"structure": "O=C1CC2(CCCC2)CC(=O)N1Cc1nc2ncccn2n1", "A": 4.375, "B": 4.272}
{"structure": "CN1CCCC1c1cncc(C(=O)NCCN2CCCCC2)n1", "stereo": "centres unmarked", "A": 15.96, "B": -9.497}
{"structure": "COc1ccc(OC2CCN(C(=O)C3CCCN(C)C3)CC2)cc1", "stereo": "centres unmarked", "A": 9.712, "B": -20.03}
{"structure": "Cc1ccc(C(N)=O)c(N2Cc3cnc(C(C)(C)C)nc3C2)n1", "A": 17.69, "B": -2.233}
{"structure": "COc1ccc(C2CCCCCN2Cc2nnc(C)o2)cc1", "stereo": "centres unmarked", "A": 13.17, "B": -20.86}

Repeated from the top, 2 entries:

structure	A	B
Cn1nccc1-c1nnn2c1COCC(CNC1CCOCC1)C2 (centres unmarked)	12.92%	-
Cc1c2c(C(F)F)cc(SCC(=O)O)nc2nn1C	8.378%	-3.961%

From ChEMBL document CHEMBL3988442, “University of Dundee, Small-Polar-MMV Screening Library” (2021).